# How the values were obtained:
# [1] = 16-week maintenance therapy study: safety, local facial tolerability, adverse events, discontinuation; type: in vivo, human; conditions: 16-week study, all reasons
# Excerpt: The efficacy and safety of the adapalene gel 0.1% (Galderma Laboratories, LP, Ft. Worth, Tex.) as a maintenance therapy were compared to gel vehicle in a randomized, multicenter, vehicle-controlled, investigator-blind, parallel group study conducted at 34 centers in the United States between Nov. 13, 2003 and May 25, 2004. This study was designed to set a high threshold for achieving success. […] These subjects were re-randomized consecutively in a 1:1 ratio to receive either adapalene gel 0.1% or adapalene gel vehicle once-daily in the evening for an additional 16 weeks. Subjects were stratified by the treatment assignment received in the previous study using an interactive voice responsive system. The randomization schedule remained blinded from those involved in the clinical conduct of the study. The integrity of the blinding was ensured by packaging the topical medication in identical tubes and requiring a third party other than the investigator/evaluator to dispense the medication.
# Safety and tolerability were assessed through evaluations of local facial tolerability and adverse events. […] Mean scores at each postbaseline visit and worst score (worst observation recorded for a subject during the post-baseline period) were recorded. Adverse events were also evaluated at each visit.
# Three study populations were analyzed. […]
# [2] = 5-question subject satisfaction survey at last visit of the maintenance study; type: in vivo, human
# Excerpt: The primary efficacy variable was the failure rate at week 16, defined as the percentage of subjects unable to maintain 50% of total lesion count improvement from the previous 12-week combination therapy study (e.g., a subject entering the maintenance phase after having lost 40 lesions in the combination study was considered as a failure if the lesion count at the end of the maintenance study was increased by more than 20 lesions). Data from this assessment is presented graphically herein as a maintenance rate, which is simply 100% minus the failure rate. Secondary efficacy variables included lesion counts (total, inflammatory and non inflammatory), failure rates for inflammatory and non-inflammatory lesions, as well as global severity and global improvement of the disease. At the last visit, subject satisfaction was assessed via a 5-question survey.
compound,measurement,setting,value
"COc1ccc(-c2ccc3cc(C(=O)O)ccc3c2)cc1C12CC3CC(CC(C3)C1)C2 [adapalene, 6-[3-(1-adamantyl)-4-methoxyphenyl]-2-naphtoic acid]",discontinuation rate,[1],11.1%
same,"subjects ""very satisfied"" or ""satisfied"" with the treatment effectiveness",[2]; P=0.003 vs vehicle,75%
same,"subjects ""very satisfied"" or ""satisfied"" with the overall maintenance treatment",[2]; P=0.01 vs vehicle,76%
same,"subjects ""very satisfied"" or ""satisfied"" with the overall treatment scheme beginning with the combination therapy",[2]; P=0.02 vs vehicle,84%
same,subjects who felt better about themselves after the study,[2]; P=0.41 vs vehicle,73%

# — patent US20080161273A1, “Method of Using Adapalene in Acne Maintenance Therapy” (GALDERMA RESEARCH & DEVELOPMENT, priority 2004, published 2008)
